Results reported in the supplement of paper PMC12823440, “Inhibitors supercharge kinase turnover through native proteolytic circuits” (Nature, 2025).
Structures can show the parent of a compound that is named as a salt. The list shows a part of the results. The calls rarely recur for the same compound in another form.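 Kinases, fused to nanoluciferase, were expressed in K562 cells; luminescence was measured every 4 h from 2 to 18 h as percent of control (DMSO = 100%, positive control = 0%). A time point is decreased if signal falls significantly (2 sigma). Hits were called by the authors by a rule that is not shown; the count of time points alone does not decide it.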

Chains of the proteins cited; added tags and fusions are not shown. Lines headed by an entry give the natural chain unless they say otherwise; changes in a name come on top.
UniProt P07949, whole entry, looked up: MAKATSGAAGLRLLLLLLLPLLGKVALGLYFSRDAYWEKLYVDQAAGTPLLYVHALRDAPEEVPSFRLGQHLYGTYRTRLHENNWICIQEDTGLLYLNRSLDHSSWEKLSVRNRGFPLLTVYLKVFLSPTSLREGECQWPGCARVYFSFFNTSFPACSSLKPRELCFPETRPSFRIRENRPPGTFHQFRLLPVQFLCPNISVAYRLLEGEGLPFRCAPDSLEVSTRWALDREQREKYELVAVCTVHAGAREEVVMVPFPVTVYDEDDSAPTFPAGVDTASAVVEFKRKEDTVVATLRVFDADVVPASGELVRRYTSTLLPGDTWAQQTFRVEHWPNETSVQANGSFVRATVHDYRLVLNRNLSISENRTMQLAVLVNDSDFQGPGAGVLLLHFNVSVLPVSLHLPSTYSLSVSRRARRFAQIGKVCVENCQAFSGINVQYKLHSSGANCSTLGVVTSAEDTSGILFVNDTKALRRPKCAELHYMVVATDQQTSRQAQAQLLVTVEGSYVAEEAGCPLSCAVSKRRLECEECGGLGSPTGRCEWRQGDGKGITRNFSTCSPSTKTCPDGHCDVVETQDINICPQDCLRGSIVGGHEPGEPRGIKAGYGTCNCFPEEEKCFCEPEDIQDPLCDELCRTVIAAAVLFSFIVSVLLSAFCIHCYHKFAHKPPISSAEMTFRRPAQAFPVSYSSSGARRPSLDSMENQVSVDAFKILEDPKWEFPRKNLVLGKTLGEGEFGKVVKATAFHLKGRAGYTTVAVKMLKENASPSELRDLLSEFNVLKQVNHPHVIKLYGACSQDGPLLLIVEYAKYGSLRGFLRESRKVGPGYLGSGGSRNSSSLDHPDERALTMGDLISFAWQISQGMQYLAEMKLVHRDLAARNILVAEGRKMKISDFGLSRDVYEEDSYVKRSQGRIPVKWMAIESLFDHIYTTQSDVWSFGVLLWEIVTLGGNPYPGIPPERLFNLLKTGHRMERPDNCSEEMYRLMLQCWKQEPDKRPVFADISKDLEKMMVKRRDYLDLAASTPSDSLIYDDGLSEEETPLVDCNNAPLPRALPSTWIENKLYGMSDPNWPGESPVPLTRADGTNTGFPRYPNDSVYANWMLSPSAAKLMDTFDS
UniProt P07949, whole entry M918T, looked up: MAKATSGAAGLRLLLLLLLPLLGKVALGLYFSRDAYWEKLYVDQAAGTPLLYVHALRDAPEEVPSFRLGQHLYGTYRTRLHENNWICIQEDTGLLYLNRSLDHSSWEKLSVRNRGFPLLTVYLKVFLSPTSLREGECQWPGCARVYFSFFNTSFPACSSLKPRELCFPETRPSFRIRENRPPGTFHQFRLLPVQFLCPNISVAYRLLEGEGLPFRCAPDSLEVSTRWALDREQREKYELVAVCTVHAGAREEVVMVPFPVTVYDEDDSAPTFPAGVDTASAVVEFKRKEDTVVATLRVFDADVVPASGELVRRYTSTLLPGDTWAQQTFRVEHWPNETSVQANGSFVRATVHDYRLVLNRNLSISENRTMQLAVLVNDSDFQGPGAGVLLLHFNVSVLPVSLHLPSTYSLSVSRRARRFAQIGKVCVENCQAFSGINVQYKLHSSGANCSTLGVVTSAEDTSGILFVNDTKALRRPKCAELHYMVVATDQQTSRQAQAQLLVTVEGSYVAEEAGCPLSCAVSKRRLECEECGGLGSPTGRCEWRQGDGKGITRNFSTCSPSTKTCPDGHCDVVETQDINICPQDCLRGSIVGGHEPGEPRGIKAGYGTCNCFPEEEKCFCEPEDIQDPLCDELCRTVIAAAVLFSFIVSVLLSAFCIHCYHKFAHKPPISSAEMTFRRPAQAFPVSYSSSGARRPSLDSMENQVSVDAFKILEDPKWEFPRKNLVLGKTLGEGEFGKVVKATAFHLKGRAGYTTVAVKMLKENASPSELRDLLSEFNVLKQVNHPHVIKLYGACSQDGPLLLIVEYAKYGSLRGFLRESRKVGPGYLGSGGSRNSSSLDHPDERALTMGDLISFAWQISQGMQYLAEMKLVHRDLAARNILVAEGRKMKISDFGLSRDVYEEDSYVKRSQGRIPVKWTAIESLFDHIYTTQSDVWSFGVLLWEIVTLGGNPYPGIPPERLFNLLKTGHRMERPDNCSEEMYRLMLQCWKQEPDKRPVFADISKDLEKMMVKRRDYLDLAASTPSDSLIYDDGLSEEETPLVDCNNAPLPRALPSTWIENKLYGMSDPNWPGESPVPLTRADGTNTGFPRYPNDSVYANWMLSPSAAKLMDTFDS
UniProt Q9BRS2: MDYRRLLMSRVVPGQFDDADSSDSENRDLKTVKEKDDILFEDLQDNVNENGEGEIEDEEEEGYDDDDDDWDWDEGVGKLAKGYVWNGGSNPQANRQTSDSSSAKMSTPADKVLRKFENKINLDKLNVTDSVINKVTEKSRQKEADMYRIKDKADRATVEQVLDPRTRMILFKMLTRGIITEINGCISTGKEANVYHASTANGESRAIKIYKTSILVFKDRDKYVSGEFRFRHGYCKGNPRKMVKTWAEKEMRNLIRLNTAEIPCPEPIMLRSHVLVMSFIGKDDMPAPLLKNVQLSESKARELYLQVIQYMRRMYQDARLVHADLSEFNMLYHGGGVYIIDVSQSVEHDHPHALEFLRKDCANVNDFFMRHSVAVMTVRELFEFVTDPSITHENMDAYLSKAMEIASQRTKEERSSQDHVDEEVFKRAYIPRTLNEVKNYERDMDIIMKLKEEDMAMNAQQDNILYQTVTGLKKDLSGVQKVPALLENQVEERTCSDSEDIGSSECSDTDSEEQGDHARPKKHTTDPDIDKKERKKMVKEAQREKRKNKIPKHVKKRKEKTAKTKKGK
UniProt Q13546: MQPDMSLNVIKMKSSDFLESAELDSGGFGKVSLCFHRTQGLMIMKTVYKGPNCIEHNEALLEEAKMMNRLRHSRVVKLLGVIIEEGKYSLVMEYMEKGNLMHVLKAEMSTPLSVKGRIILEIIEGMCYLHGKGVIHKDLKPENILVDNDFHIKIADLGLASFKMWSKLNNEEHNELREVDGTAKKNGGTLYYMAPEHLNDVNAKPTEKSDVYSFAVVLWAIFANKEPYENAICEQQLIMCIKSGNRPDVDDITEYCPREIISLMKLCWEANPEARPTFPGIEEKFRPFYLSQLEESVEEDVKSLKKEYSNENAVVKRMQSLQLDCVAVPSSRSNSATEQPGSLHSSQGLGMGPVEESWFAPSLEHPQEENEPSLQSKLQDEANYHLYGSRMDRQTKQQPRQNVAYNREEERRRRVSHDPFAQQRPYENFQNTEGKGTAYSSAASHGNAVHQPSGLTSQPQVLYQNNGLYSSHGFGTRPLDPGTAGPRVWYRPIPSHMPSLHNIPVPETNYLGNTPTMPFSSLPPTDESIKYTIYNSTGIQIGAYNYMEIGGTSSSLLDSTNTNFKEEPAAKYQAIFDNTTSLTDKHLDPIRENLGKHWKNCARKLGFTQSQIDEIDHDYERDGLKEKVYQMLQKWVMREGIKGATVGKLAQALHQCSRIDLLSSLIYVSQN
UniProt Q01974, whole entry: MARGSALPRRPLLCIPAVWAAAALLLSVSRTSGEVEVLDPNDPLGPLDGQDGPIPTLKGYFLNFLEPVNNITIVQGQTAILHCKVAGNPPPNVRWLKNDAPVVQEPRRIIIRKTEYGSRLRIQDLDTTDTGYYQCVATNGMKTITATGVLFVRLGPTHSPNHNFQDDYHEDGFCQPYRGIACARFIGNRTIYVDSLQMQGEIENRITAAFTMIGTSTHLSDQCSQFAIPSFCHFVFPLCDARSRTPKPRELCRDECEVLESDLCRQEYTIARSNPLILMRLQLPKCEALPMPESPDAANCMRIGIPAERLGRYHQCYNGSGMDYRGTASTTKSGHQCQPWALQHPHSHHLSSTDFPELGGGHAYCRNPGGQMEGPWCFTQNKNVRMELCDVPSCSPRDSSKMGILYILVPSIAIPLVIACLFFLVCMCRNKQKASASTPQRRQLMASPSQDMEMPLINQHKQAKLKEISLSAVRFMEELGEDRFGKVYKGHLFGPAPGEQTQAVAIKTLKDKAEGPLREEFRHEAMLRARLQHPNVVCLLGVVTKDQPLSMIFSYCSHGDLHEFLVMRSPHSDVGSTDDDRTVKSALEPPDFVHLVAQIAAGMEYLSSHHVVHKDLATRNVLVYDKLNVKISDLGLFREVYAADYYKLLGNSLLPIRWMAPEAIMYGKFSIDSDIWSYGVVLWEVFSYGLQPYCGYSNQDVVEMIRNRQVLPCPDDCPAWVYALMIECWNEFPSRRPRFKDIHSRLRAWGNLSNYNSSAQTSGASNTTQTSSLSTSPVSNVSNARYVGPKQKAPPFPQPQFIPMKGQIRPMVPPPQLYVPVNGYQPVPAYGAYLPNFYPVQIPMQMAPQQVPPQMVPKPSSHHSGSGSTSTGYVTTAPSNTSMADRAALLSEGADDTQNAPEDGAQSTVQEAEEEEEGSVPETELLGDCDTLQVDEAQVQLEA
UniProt Q15418, whole entry: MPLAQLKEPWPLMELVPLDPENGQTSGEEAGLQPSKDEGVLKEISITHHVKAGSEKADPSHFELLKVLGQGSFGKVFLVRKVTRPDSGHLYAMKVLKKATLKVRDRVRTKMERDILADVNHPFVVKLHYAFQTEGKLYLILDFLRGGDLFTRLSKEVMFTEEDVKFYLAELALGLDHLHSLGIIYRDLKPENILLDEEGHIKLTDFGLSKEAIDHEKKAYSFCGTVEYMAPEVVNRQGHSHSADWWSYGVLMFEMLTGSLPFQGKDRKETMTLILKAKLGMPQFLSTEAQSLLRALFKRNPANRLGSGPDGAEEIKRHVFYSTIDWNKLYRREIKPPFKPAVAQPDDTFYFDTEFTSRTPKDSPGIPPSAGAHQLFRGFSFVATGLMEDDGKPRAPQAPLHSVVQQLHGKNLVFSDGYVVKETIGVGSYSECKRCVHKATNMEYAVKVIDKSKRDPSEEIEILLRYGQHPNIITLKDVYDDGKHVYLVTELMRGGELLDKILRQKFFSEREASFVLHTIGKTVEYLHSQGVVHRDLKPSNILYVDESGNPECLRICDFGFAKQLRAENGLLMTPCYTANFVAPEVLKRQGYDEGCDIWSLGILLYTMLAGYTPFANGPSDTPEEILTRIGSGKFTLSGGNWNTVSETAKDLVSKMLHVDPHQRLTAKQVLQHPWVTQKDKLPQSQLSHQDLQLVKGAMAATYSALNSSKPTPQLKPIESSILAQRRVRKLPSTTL
UniProt Q9NYA1, whole entry: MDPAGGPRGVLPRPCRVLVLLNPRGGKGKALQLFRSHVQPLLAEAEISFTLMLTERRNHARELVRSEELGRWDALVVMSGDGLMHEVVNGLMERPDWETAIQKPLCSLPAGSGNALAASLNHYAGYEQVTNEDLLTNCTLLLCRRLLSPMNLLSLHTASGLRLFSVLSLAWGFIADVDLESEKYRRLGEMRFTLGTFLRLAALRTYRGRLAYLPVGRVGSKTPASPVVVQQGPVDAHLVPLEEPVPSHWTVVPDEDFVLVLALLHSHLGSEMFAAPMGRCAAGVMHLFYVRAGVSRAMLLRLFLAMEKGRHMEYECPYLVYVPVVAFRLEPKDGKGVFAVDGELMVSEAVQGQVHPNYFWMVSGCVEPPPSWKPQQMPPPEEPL
UniProt Q9Y6E0: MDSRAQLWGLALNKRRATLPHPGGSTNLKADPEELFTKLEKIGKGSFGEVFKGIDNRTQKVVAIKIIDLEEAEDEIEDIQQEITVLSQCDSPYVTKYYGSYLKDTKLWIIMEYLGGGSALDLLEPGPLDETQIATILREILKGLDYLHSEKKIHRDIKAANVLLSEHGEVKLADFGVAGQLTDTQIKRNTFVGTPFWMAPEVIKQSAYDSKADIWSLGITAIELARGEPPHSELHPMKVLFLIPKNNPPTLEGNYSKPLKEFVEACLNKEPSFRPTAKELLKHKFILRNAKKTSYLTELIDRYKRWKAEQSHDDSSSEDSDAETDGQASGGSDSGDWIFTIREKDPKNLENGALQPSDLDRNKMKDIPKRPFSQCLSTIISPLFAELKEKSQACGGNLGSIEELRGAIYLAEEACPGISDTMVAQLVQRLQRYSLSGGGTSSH

Columns and labels:
Test in all cases: kinase-Nluc reporter destabilization hit call (1 = scored as downregulated) (binary); higher = compound decreases kinase abundance
Conditions in all cases: K562; 2-18 h
RET = RET (UniProt P07949)
[1] = molecular target: RET_M918T (clone: RET_mut) (UniProt P07949)
RIOK1 = RIOK1 (UniProt Q9BRS2)
RIPK1 = RIPK1 (UniProt Q13546)
RIPK2 = RIPK2 (UniProt O43353)
ROR2 = ROR2 (UniProt Q01974)
RPS6KA1 = RPS6KA1 (UniProt Q15418)
SPHK1 = SPHK1 (UniProt Q9NYA1)
SRC = SRC (UniProt P12931)
STK24 = STK24 (UniProt Q9Y6E0)

Measured: kinase-Nluc reporter destabilization hit call

C=C1C(=O)[C@@]23[C@H](O)C[C@@H]4C(C)(C)C(=O)CC[C@@]4(C)[C@@H]2CC[C@@H]1[C@H]3O [Glaucocalyxin A] (2.5 µM)
inactive: RET 0 | [1] 0 | RIOK1 = 0 | RIPK1 = 0 | RIPK2 = 0 | ROR2 = 0 | RPS6KA1 = 0 | SPHK1 = 0 | SRC 0 | STK24 = 0

CCCCCC(=O)N[C@@H](Cc1ccc(O)cc1)C(=O)OC (10 µM)
inactive: RET 0 | [1] 0 | RIOK1 = 0 | RIPK1 = 0 | RIPK2 = 0 | ROR2 = 0 | RPS6KA1 = 0 | SPHK1 = 0 | SRC 0 | STK24 = 0

Cc1cc(C(=O)NOCCO)c(Nc2ccc(I)cc2F)n(C)c1=O (10 µM)
inactive: RET 0 | [1] 0 | RIOK1 = 0 | RIPK1 = 0 | RIPK2 = 0 | ROR2 = 0 | RPS6KA1 = 0 | SPHK1 = 0 | SRC 0 | STK24 = 0

CC1=C(C(=O)Nc2cc3cn[nH]c3cc2F)C(c2ccc(C(F)(F)F)cc2)CC(=O)N1 (stereo not given) (10 µM)
inactive: RET 0 | [1] 0 | RIOK1 = 0 | RIPK1 = 0 | RIPK2 = 0 | ROR2 = 0 | RPS6KA1 = 0 | SPHK1 = 0 | SRC 0 | STK24 = 0

O=C(Nc1ccc(Cl)cc1)C1CCCN(C(=O)c2cc(C(F)(F)F)cc(C(F)(F)F)c2)C1 (stereo not given) (10 µM)
inactive: RET 0 | [1] 0 | RIOK1 = 0 | RIPK1 = 0 | RIPK2 = 0 | ROR2 = 0 | RPS6KA1 = 0 | SPHK1 = 0 | SRC 0 | STK24 = 0

C=CC(=O)N1CC[C@@H](Oc2nc(Nc3ccc(N4CCC(N5CCN(C)CC5)CC4)cc3)c(C(N)=O)nc2CC)C1 [Naquotinib (mesylate)] (2.5 µM)
inactive: RET 0 | [1] 0 | RIOK1 = 0 | RIPK1 = 0 | RIPK2 = 0 | ROR2 = 0 | RPS6KA1 = 0 | SPHK1 = 0 | SRC 0 | STK24 = 0

C=CC(=O)Nc1cc(Nc2nccc(-c3cn(C)c4ccccc34)n2)c(OC)cc1OCCN(C)C [Rezivertinib] (2.5 µM)
inactive: RET 0 | [1] 0 | RIOK1 = 0 | RIPK1 = 0 | RIPK2 = 0 | ROR2 = 0 | RPS6KA1 = 0 | SPHK1 = 0 | SRC 0 | STK24 = 0

COc1cc2ncnc(Nc3cccc(I)c3)c2cc1OC (2.5 µM)
inactive: RET 0 | [1] 0 | RIOK1 = 0 | RIPK1 = 0 | RIPK2 = 0 | ROR2 = 0 | RPS6KA1 = 0 | SPHK1 = 0 | SRC 0 | STK24 = 0

CNC(=O)CNc1cnc2ccc(-c3ccc(OC)c(OC)c3)cc2n1 (10 µM)
inactive: RET 0 | [1] 0 | RIOK1 = 0 | RIPK1 = 0 | RIPK2 = 0 | ROR2 = 0 | RPS6KA1 = 0 | SPHK1 = 0 | SRC 0 | STK24 = 0

Clc1ccc(C(c2ccc(Cl)cc2)[n+]2ccn(CC(OCc3ccc(Cl)cc3Cl)c3ccc(Cl)cc3Cl)c2)cc1 (stereo not given) [Calmidazolium chloride] (2.5 µM)
inactive: RET 0 | [1] 0 | RIOK1 = 0 | RIPK1 = 0 | RIPK2 = 0 | ROR2 = 0 | RPS6KA1 = 0 | SPHK1 = 0 | SRC 0 | STK24 = 0

Cc1ccc(C)c(OCCn2cc(C(=O)O)c3ccccc32)c1 (10 µM)
inactive: RET 0 | [1] 0 | RIOK1 = 0 | RIPK1 = 0 | RIPK2 = 0 | ROR2 = 0 | RPS6KA1 = 0 | SPHK1 = 0 | SRC 0 | STK24 = 0

COc1cc(-c2cc(-c3ccc(N4CCNCC4)cc3)cnc2C)cc(OC)c1OC (10 µM)
inactive: RET 0 | [1] 0 | RIOK1 = 0 | RIPK1 = 0 | RIPK2 = 0 | ROR2 = 0 | RPS6KA1 = 0 | SPHK1 = 0 | SRC 0 | STK24 = 0

N#Cc1ccc2ncnc(NCCc3ccccc3)c2c1 [Senexin A] (10 µM)
inactive: RET 0 | [1] 0 | RIOK1 = 0 | RIPK1 = 0 | RIPK2 = 0 | ROR2 = 0 | RPS6KA1 = 0 | SPHK1 = 0 | SRC 0 | STK24 = 0

CCC(=O)Nc1cccc(Oc2nc(Nc3ccc(N4CCN(C)CC4)cc3OC)ncc2Cl)c1 (10 µM)
inactive: RET 0 | [1] 0 | RIOK1 = 0 | RIPK1 = 0 | RIPK2 = 0 | ROR2 = 0 | RPS6KA1 = 0 | SPHK1 = 0 | SRC 0 | STK24 = 0

COC(=O)Nc1ccc(-c2nc(N3CCOCC3)c3cnn(C4CCN(Cc5cccnc5)CC4)c3n2)cc1 (10 µM)
inactive: RET 0 | [1] 0 | RIOK1 = 0 | RIPK1 = 0 | RIPK2 = 0 | ROR2 = 0 | RPS6KA1 = 0 | SPHK1 = 0 | SRC 0 | STK24 = 0

C=C1CCC[C@]2(C)C=C3OC(=O)C(C)=C3C[C@@H]12 [Atractylenolide I] (10 µM)
inactive: RET 0 | [1] 0 | RIOK1 = 0 | RIPK1 = 0 | RIPK2 = 0 | ROR2 = 0 | RPS6KA1 = 0 | SPHK1 = 0 | SRC 0 | STK24 = 0

NC1(C(=O)NCCCn2cc(-c3ccc(OC(F)(F)F)cc3)c3cc(CN4CCN(Cc5c(Cl)cccc5Cl)CC4)ccc32)CCNCC1 (2.5 µM)
inactive: RET 0 | [1] 0 | RIOK1 = 0 | RIPK1 = 0 | RIPK2 = 0 | ROR2 = 0 | RPS6KA1 = 0 | SPHK1 = 0 | SRC 0 | STK24 = 0

O=C1NC(=O)/C(=C\c2c[nH]c(=O)c(-c3ccc(N4CCNCC4)nc3)c2)S1 [Protein kinase inhibitors 1 hydrochloride] (10 µM)
inactive: RET 0 | [1] 0 | RIOK1 = 0 | RIPK1 = 0 | RIPK2 = 0 | ROR2 = 0 | RPS6KA1 = 0 | SPHK1 = 0 | SRC 0 | STK24 = 0

O=c1[nH]ccc2nc(-c3ccc(CN4CCC(c5nc(-c6ccccn6)n[nH]5)CC4)cc3)c(-c3ccccc3)cc12 (10 µM)
inactive: RET 0 | [1] 0 | RIOK1 = 0 | RIPK1 = 0 | RIPK2 = 0 | ROR2 = 0 | RPS6KA1 = 0 | SPHK1 = 0 | SRC 0 | STK24 = 0

COc1cc2cc(Oc3ccc4ccc(=O)oc4c3)c(=O)oc2cc1O [Daphnoretin] (10 µM)
inactive: RET 0 | [1] 0 | RIOK1 = 0 | RIPK1 = 0 | RIPK2 = 0 | ROR2 = 0 | RPS6KA1 = 0 | SPHK1 = 0 | SRC 0 | STK24 = 0

C=CC(=O)Nc1cccc(Oc2nc(Nc3ccc(N4CCN(C)CC4)c(F)c3)nc3[nH]ccc23)c1 [Avitinib (maleate)] (2.5 µM)
inactive: RET 0 | [1] 0 | RIOK1 = 0 | RIPK1 = 0 | RIPK2 = 0 | ROR2 = 0 | RPS6KA1 = 0 | SPHK1 = 0 | SRC 0 | STK24 = 0

Nc1ncnc2c1nc(Br)n2[C@@H]1O[C@@H]2COP(=O)(O)O[C@H]2[C@H]1O [8-Bromo-cAMP sodium salt] (10 µM)
inactive: RET 0 | [1] 0 | RIOK1 = 0 | RIPK1 = 0 | RIPK2 = 0 | ROR2 = 0 | RPS6KA1 = 0 | SPHK1 = 0 | SRC 0 | STK24 = 0

CCNC(=O)C#Cc1ccc2c(C(=Nc3ccc(CN(C)C)cc3)c3ccccc3)c(O)[nH]c2c1 (2.5 µM)
inactive: RET 0 | [1] 0 | RIOK1 = 0 | RIPK1 = 0 | RIPK2 = 0 | ROR2 = 0 | RPS6KA1 = 0 | SPHK1 = 0 | SRC 0 | STK24 = 0

C[C@@H]1O[C@@H](Oc2cc(O)c3c(=O)c(O[C@@H]4O[C@@H](C)[C@H](O)[C@@H](O)[C@H]4O)c(-c4ccc(O)cc4)oc3c2)[C@H](O)[C@H](O)[C@H]1O [Kaempferitrin] (10 µM)
inactive: RET 0 | [1] 0 | RIOK1 = 0 | RIPK1 = 0 | RIPK2 = 0 | ROR2 = 0 | RPS6KA1 = 0 | SPHK1 = 0 | SRC 0 | STK24 = 0

Random excerpt: 2 compounds from above, in no set order.
COc1cc2cc(Oc3ccc4ccc(=O)oc4c3)c(=O)oc2cc1O [Daphnoretin] (10 µM)
inactive: RET 0 | [1] 0 | RIOK1 = 0 | RIPK1 = 0 | RIPK2 = 0 | ROR2 = 0 | RPS6KA1 = 0 | SPHK1 = 0 | SRC 0 | STK24 = 0

CCNC(=O)C#Cc1ccc2c(C(=Nc3ccc(CN(C)C)cc3)c3ccccc3)c(O)[nH]c2c1 (2.5 µM)
inactive: RET 0 | [1] 0 | RIOK1 = 0 | RIPK1 = 0 | RIPK2 = 0 | ROR2 = 0 | RPS6KA1 = 0 | SPHK1 = 0 | SRC 0 | STK24 = 0

More entries:

CC(C)n1c([C@H](C)Nc2ncnc(N)c2C#N)cc2cccc(-c3ccc(=O)n(C)c3)c2c1=O (10 µM)
inactive: RET 0 | [1] 0 | RIOK1 = 0 | RIPK1 = 0 | RIPK2 = 0 | ROR2 = 0 | RPS6KA1 = 0 | SPHK1 = 0 | SRC 0 | STK24 = 0

CC(C)=CC[C@@H](O)C1=CC(=O)c2c(O)ccc(O)c2C1=O [Shikonin] (10 µM)
inactive: RET 0 | [1] 0 | RIOK1 = 0 | RIPK1 = 0 | RIPK2 = 0 | ROR2 = 0 | RPS6KA1 = 0 | SPHK1 = 0 | SRC 0 | STK24 = 0

O=C(c1cccc(Cl)c1F)N1CCN(Cc2cccc(Nc3nccs3)n2)CC1 (2.5 µM)
inactive: RET 0 | [1] 0 | RIOK1 = 0 | RIPK1 = 0 | RIPK2 = 0 | ROR2 = 0 | RPS6KA1 = 0 | SPHK1 = 0 | SRC 0 | STK24 = 0

C#Cc1cccc(Nc2ncnc3cc(OC)c(NC(=O)N4C[C@H]5CCN(C)[C@H]5C4)cc23)c1 [Theliatinib] (10 µM)
inactive: RET 0 | [1] 0 | RIOK1 = 0 | RIPK1 = 0 | RIPK2 = 0 | ROR2 = 0 | RPS6KA1 = 0 | SPHK1 = 0 | SRC 0 | STK24 = 0

O=C(NCCO)c1cc(C(=O)NCCO)cc(C(=O)NCCO)c1 (10 µM)
inactive: RET 0 | [1] 0 | RIOK1 = 0 | RIPK1 = 0 | RIPK2 = 0 | ROR2 = 0 | RPS6KA1 = 0 | SPHK1 = 0 | SRC 0 | STK24 = 0
